The results in this text go back to article PMC3139607.

Results are given in words; binding and its absence hold for the method and conditions named. Binding calls can cover weak binding; strength is not graded here.

The target in experiment [1] is membrane CD4 on PM-1 cells pre-treated with recombinant gp120 Ba-L (human (endogenous in PM-1) | HIV-1 isolate Ba-L). The experiment can be described thus: flow cytometry on cells; 500,000 cells per sample, 20 min on ice with 1 µg MAb; fluorescein-conjugated anti-mouse IgG; PM-1 cells treated or not with recombinant gp120; RK13 cells expressing Ba-L Env treated or not with 2D-CD4 or CD4-M3; only the binder purified. (In general: Flow cytometry measures light scatter and fluorescence of single cells or particles in a stream.)

Experiment [2] deals with two-domain (2D) soluble CD4 (amino acids 1 to 183) (human). Briefly: ELISA; solid-phase 2D-sCD4 (2 µg/ml coating) alone or in equimolar complex with recombinant gp120 (Ba-L or IIIB), complexes pre-formed in ice for 20 min; MAb DB81 in solution; phosphatase-conjugated anti-mouse IgG; incubations 1 h at 20°C (Figure S2); both purified. (In an ELISA, binding on a coated surface is turned into a signal by an enzyme label.)

B1: MAb DB81 (antibody, V domains shown)
VH: EVQLQQSGPELVKPGASVKISCKASGYSFTDYTMLWVKQSHGKSLEWIGNINPYYDTTTYNLNFKGKATMTVDKSSSTAYMQLNSLTSEDSAVYYCAREGDYGHPFAYWGQGTLVTVSS
VL: DIVMTQSHKFMSTSVGDRVSITCKASQDVSTTVAWYQQKPGQSPKLLIYSASYRYTGVPDRFTGSGSGTDFTFTISSVQAEDLAVYYCQQHYSTPPTFGGGTKLEIR
For B1, the binding result in experiment [1] and in experiment [2] was “binds” in each case.
